In all, about 33,000 sequences were measured (“E-score (-0.5 to 0.5)”: median about -8e-05, highest 2% from about 0.23 on). This is one part of the list.
The sequences below were run against T1, Nrg2 (UniProt P38082) (assay: PBM E-score (8-mer binding enrichment) (E-score (-0.5 to 0.5)); higher = stronger / more preferred TF binding). Details: protein concentration: 100 nM; construct: GST-full length.
T1 sequence: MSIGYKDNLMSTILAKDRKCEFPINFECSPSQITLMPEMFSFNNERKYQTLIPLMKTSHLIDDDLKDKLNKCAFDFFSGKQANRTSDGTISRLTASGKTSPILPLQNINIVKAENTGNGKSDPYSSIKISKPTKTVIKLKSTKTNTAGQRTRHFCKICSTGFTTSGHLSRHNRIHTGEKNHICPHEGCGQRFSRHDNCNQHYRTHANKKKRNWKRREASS
How it was run: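 The E-score, a modified Wilcoxon-Mann-Whitney statistic, was computed by the Universal PBM Analysis Suite for every ungapped eight-base word pooled with its reverse complement. Scans behind it were normalised with masliner after bound GST-tagged yeast transcription factors were detected with fluorescent anti-GST. The proteins, at about 100-200 nM, had been applied to universal all-10-mer Agilent arrays made double-stranded by primer extension.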

Sequence	PBM E-score
AGAAGCAT	0.0357
AATACCTA	0.144
TCAAGAAA	0.145
CGTAATGC	-0.023
AAAGCGAT	0.0772
CGCTACAG	-0.103
ATGCTACC	0.0188
TCCGGTAA	-0.0902
CACCAAGG	-0.0415
GAGAAAAA	0.0431
ATTCGATA	0.0763
CAAGACGC	-0.0198
GGAAAAAA	-0.11
AATCCCGA	0.193
ATAATGCA	0.0348
ATAGTTCA	0.0512
ACATTTCA	0.0192
GCCGGAAC	-0.00319
AGTTGCAT	0.165
ACACCCGG	-0.141
CGTGGAAA	0.173
ACAGCAAA	0.0135
ACATACAT	0.212
CTTGCTCA	-0.151
AATATGGG	-0.0279

Quoted at random: 5 entries already listed.
Sequence	PBM E-score
CAAGACGC	-0.0198
CTTGCTCA	-0.151
ACAGCAAA	0.0135
ATGCTACC	0.0188
ATTCGATA	0.0763

(continued)

Sequence	PBM E-score
AGAGCATA	-0.0894
CGCAGCAC	-0.0909
GCTCGGAC	-0.0396
ATTCTTGC	0.0743
CGTCTGCC	-0.155
GTCCACAC	0.101
CTGGAATA	0.193
ACTGAGTA	0.0363
GATATATC	0.0168
AAGACCAG	0.038
AACTACGC	0.0487
GAGCGCCA	-0.0395
CGTTTAGA	-0.0654
CACCGCAG	0.0838
ACTCCATA	-0.034
ATAGCCGC	-0.118
CGTCGACC	0.069
ACGGCGCG	0.214
CACGTTGG	-0.135
GTAGCAAC	0.105
AACAGGCA	-0.0487
CTTACACA	-0.0537
GTCACCCA	-0.136
AAGTGACC	-0.0854
ATGTTGGC	0.137

Sequence	PBM E-score
CGAAGGCA	-0.237
CGCGTCAC	-0.0169
CTCTTGGC	-0.189
CCTTTGAC	-0.14
GAAGCTGC	0.0537
CCAACTTA	0.101
GCCATTGA	0.13
ATTTCAGG	0.189
AAGACTAA	0.0215
GTTTAAAA	-0.0216
AATGTGAG	-0.0032
TGATGGAA	-0.0232
ATGTCACA	0.14
AGCAGCCG	0.0537
AGAATGCG	0.0659
ATCTCGCA	0.0354
TCAGCCAA	0.00064
ATTAAACG	0.129
CGACTGCC	-0.187
GACCTTCA	-0.0984
ACAGCTCG	-0.0529
ACAGGCGA	-0.0225
CTAGTAAA	0.122
CTGGCTTC	-0.201
ACGAAAAC	0.139

Sequence	PBM E-score
CTATCGTC	-0.115
CAAAACTG	0.116
ATCCCAAC	0.034
AAGCGGCT	0.0578
AAAGTCGT	-0.00649
ACATGCCG	0.0126
TATGGGGA	0.283
AAGGACGT	-0.135
ATCATAGA	0.238
ATCGGTAC	0.00733
TAGCGCTA	-0.0709
AATCGAGC	0.134
ACACCAAG	-0.0382
CTGACGGA	-0.131
CCAAGGGA	0.178
ACCGACGC	-0.262
CCGCGTAC	-0.0606
AACTTCTG	-0.0749
CCTTCACA	0.00895
CACGGCGA	0.0616
TCCTGGAA	-0.107
GATGTATA	0.124
ACTACTCC	0.00907
CCCACACC	0.115
GGTGTTCA	-0.176

Sequence	PBM E-score
AGGTGACC	-0.0318
CGAGCTGA	0.243
AGCAGCAT	-0.146
ACTTTTGC	-0.0259
ACCTGTTA	-0.199
CTCACCGA	-0.00873
GTACCTAC	-0.00923
AGACTAGC	-0.208
CTAGCGTA	-0.312
AAGTTGCT	-0.0399
CGCACTGA	-0.0198
ACAGGACA	0.153
GCTAAGGA	-0.225
ACCCGCCG	0.201
CGACAGCG	-0.169
TACGAATA	0.134
AGGCATTG	-0.113
ACACCCAA	0.024
AGTATCGA	0.174
GGACACTA	0.00752
CGAGTTAG	0.0595
GACAGGGA	0.252
AAAGCGTT	-0.116
CCCGTAGG	-0.203
CTACACAA	0.124

Sequence	PBM E-score
GGCACCCA	-0.163
CCTCCATA	-0.224
ATAGCCGG	-0.145
CCTAACTA	0.0797
CGCTCCCA	-0.177
ACATTCTG	-0.0901
CAAGAGTC	-0.198
CCCAGATC	-0.253
GTTTGTAA	-0.0294
CAGACAAA	0.0463
CACTGGGG	-0.168
ATGGAAAC	-0.0525
GCATAACC	-0.0951
ATACCCGG	-0.154
CCTGCAGA	0.143
GCGTCGTA	0.0775
CACAATGC	0.0273
AACCGCCC	0.00914
ATGAATCG	0.163
GAAAGCAC	0.116
GATTACGA	0.134
AGCGGGAC	-0.101
ACACTTAG	0.0337
GCAGTGGA	0.0909
GACTGCCC	-0.152

Sequence	PBM E-score
GATGGAGC	-0.166
AAGGCTAA	-0.0162
AGTTCTTC	-0.029
ATCTTTTG	0.00477
ACTACACG	0.0796
GCGCTTTA	0.213
CCTTTCGA	0.115
CGCTTCAA	-0.029
CACGGCTA	-0.174
ACTAGCTA	0.0559
AGGGCTAA	-0.0406
ACGAGAGC	0.0267
GCGAGATA	0.171
AACTATCG	0.0118
CTATGACC	-0.129
TCGGACCA	0.124
GACTAGGA	-0.0424
CGATCAAG	-0.0142
AGTTACTA	0.0184
GAGCAACA	-0.0268
CTGGCCTA	-0.0943
GCGATAAA	0.204
CGGCGAGC	0.116
ACTGGGAG	-0.109
AGAGCCCT	-0.0853

Exported comma-delimited: entries from further up.
Sequence,PBM E-score
AAGGCTAA,-0.0162
ACGAGAGC,0.0267
GCGATAAA,0.204

Shown with bars between the fields: entries from further up.
Sequence | PBM E-score
AACTATCG | 0.0118
CTATGACC | -0.129

The listing continues:

Sequence	PBM E-score
TGACGGAA	-0.00402
CCTGCAAG	-0.0363
CGAAGACA	-0.00934
AGGCACTG	-0.0512
CCACTGGC	0.0694
GCAAATTA	0.155
AACGCGCT	0.123
ATGGCCCG	-0.14
AAGGCTCA	-0.107
AAGTTGCC	0.00393
GCTGACAC	-0.0636
ACATCATG	0.0246
TACTCTAA	0.0771
CATTCGTA	-0.0996
AGGGGTCA	0.128
CAGGCGAA	0.0764
AGCGGGGG	-0.295
AATAGTAA	0.221
AGAAAACG	0.155
GGACTCCA	-0.235
CCCCATGA	0.154
CCATCAAG	-0.15
ACCATCCA	-0.158
CACGTATA	0.0382
ACGTCTAT	-0.136

Sequence	PBM E-score
CGTCCGGA	-0.123
CCTGGGCA	-0.261
ATTAAGCG	0.123
AGCTATGA	-0.0745
AAATCTGA	0.139
CATCGGAC	-0.00858
GCGGTGAA	0.0607
TAACCTCA	-0.0636
AGCGTTCA	-0.185
GGCAAACC	-0.196
CATACCTC	-0.0407
ACTCATCC	0.0985
AAACAGCC	-0.0282
ATGATTGG	0.00137
GCTACGAA	0.139
ACCTCTCT	-0.161
ATCAGGCA	0.00611
GCATGTAA	-0.0072
AGCCTGAC	-0.116

— the supplement of paper PMC3334620
